The source of these data is paper PMC11811201.

Test [1] addresses Flag-tagged pocket mutant Xenopus cyclin B3 (IVT) (Xenopus laevis). Nature of the test: co-IP; α-Flag IP of IVT Flag-cycB3^WT/PM from CSF extract with IVT Myc-XErp1^s variants, arrested with Myc-XErp1^CT (aa 491–651, T545A, T551A) and MG262 (100 µM); 30 min at RT; IP samples treated with λ-phosphatase; Western blot. For orientation: In western blotting, separated proteins are transferred to a membrane and probed.

The target of test [2] is Flag-tagged wildtype Xenopus cyclin B3 (IVT) (Xenopus laevis). The test is described as above.

Where a chain is given by its changes, count along the chain named. Names may count otherwise. No constants are given. Whether binding was seen depends on the method and setting. In cells and extracts the contact can be indirect. For some of these results: A result given as binding can be weak or reduced; the word gives no strength. Tags and fused reporters may be left off the sequences shown.

B1: Myc-tagged full-length stable XErp1 (XErp1^s WT) (protein, UniProt Q8AXF4 1-651)
chain: MANLLENFAAHHSMTAGAKKKADHQDTSVSQDNGYSDNLKGFSPDSHKSGNFLETVTEGYENSENIDPTLILSPIKYELSWGADTRESKQLAPLYETPRVGKKEFSLRRRLLISKATSGGNLDFDVSVCSAESCGREKSLRRIPSHEGSLSNSFADSPRDGSYEPIATSTLKTESESGTSCKKWRLSFAQQRSSTLDDSKSDSIPLPEVENISPVQHSLASSTDDSILYEETIFGAPTTPTCNFIVKEEFQTPISNLAANFRFNLCTPDVGHVSDFDISVTEDNAFHNLSLDKSQDSITDHEGSFQELIQKPRETSKAVNNKSRLRKLDRCRRLSTLRERGSQSEVEEEGNEVPVLSSAYKLKVARASVDEENEFSSDESRVHSLLSSDDLTGKPALRVLHEMLLRSTRKRPQQATVQDLLGSSGCFELPEDSLSRLIGRKMGLETFDILAELKNRNLKHILASILDLVNAASICSMCRVSRDWRDVVLQDKSAHQRRKAYIKKLKTEAEQGRQLSFEDSATRLNILSRSALRSVQIQARSAFRTPTSSLTPGDNKSIHSASKHQEYLKVAKTLFTDEALKPCPRCQYPAKYQALKKRGTCSRKDCGFDFCSLCLCTFHGSKECGTGSAKRIPKKEALPGSAQSKRNLKRL
Regarding B1, the results for the binding result in test [1] and in test [2] were “no binding” and “binds”, respectively.

B2: Myc-tagged full-length stable XErp1 T97A (XErp1^s T97A) (protein, UniProt Q8AXF4 1-651)
chain: B1 chain with T97A
As for B2, in test [2], the binding result is on record as “no binding”.

B3: Myc-tagged full-length stable XErp1 3RA (XErp1^s 3RA) (protein, UniProt Q8AXF4 1-651)
chain: B1 chain with R108A, R109A, R110A
In the case of B3, the binding entry in test [2] is given as “no binding”.
